Measurements as given in article PMC11841255.
No constants are given. Whether binding was seen depends on the method and setting. In cells and extracts the contact can be indirect. Some entries that bind do so weakly or less than the wild type. For some of these results: Sequences can lack the tags named with a protein. Blank lines part the entries; values can stand above or below the binder they belong to.

Amino acid sequences for entries named in this document (tags omitted).
UniProt P01106: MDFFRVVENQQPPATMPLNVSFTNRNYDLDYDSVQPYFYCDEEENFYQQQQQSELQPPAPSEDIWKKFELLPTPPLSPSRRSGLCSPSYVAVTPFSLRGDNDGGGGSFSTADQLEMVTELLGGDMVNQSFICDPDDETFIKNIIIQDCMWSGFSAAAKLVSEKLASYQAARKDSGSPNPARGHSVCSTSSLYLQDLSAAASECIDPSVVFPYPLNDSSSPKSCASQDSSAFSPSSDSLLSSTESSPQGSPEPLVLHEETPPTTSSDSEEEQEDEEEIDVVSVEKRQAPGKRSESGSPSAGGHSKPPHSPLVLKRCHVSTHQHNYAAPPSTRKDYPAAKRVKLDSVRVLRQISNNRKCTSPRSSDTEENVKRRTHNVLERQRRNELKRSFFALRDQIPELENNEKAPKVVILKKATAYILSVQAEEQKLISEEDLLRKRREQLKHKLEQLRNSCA

Experiments:
[1] = molecular target: MYC, endogenous (human (endogenous in UM-UC3 and T24)) (UniProt P01106); assay: co-IP; endogenous proteins; lysate of UM-UC3 or T24 BLCA cells incubated with primary antibody at 4 °C for 12 h, Protein A/G magnetic beads 1 h at 4 °C, five washes, WB
Flag-MYC = Flag-MYC (UniProt P01106); assay: co-IP; exogenous, tagged plasmids co-transfected in 293T cells; lysate incubated with primary antibody at 4 °C for 12 h, Protein A/G magnetic beads 1 h at 4 °C, five washes, WB; in one panel GFP-CDCA3 co-transfected with HA-MYC and Flag-TRIM28 (interaction enhanced)
[2] = molecular target: MYC, endogenous (human (endogenous in UM-UC3 and T24)), P01106; assay: co-IP; endogenous proteins; lysate of UM-UC3 or T24 BLCA cells incubated with primary antibody at 4 °C for 12 h, Protein A/G magnetic beads 1 h at 4 °C, five washes, WB; conditions: remark: other sources report otherwise
HA-MYC, P01106 = assay: co-IP; exogenous, tagged plasmids co-transfected in 293T cells; lysate incubated with primary antibody at 4 °C for 12 h, Protein A/G magnetic beads 1 h at 4 °C, five washes, WB; in one panel GFP-CDCA3 co-transfected with HA-MYC and Flag-TRIM28 (interaction enhanced); conditions: remark: other sources report otherwise

binding (Flag-MYC): binds
B2: GFP-CDCA3 (protein, UniProt Q99618 1-268)
chain: MGSAKSVPVTPARPPPHNKHLARVADPRSPSAGILRTPIQVESSPQPGLPAGEQLEGLKHAQDSDPRSPTLGIARTPMKTSSGDPPSPLVKQLSEVFETEDSKSNLPPEPVLPPEAPLSSELDLPLGTQLSVEEQMPPWNQTEFPSKQVFSKEEARQPTETPVASQSSDKPSRDPETPRSSGSMRNRWKPNSSKVLGRSPLTILQDDNSPGTLTLRQGKRPSPLSENVSELKEGAILGTGRLLKTGGRAWEQGQDHDKENQHFPLVES

binding (HA-MYC, P01106): binds
B4: Flag-TRIM28, Q13263 1-835 (protein)
chain: MAASAAAASAAAASAASGSPGPGEGSAGGEKRSTAPSAAASASASAAASSPAGGGAEALELLEHCGVCRERLRPEREPRLLPCLHSACSACLGPAAPAAANSSGDGGAAGDGTVVDCPVCKQQCFSKDIVENYFMRDSGSKAATDAQDANQCCTSCEDNAPATSYCVECSEPLCETCVEAHQRVKYTKDHTVRSTGPAKSRDGERTVYCNVHKHEPLVLFCESCDTLTCRDCQLNAHKDHQYQFLEDAVRNQRKLLASLVKRLGDKHATLQKSTKEVRSSIRQVSDVQKRVQVDVKMAILQIMKELNKRGRVLVNDAQKVTEGQQERLERQHWTMTKIQKHQEHILRFASWALESDNNTALLLSKKLIYFQLHRALKMIVDPVEPHGEMKFQWDLNAWTKSAEAFGKIVAERPGTNSTGPAPMAPPRAPGPLSKQGSGSSQPMEVQEGYGFGSGDDPYSSAEPHVSGVKRSRSGEGEVSGLMRKVPRVSLERLDLDLTADSQPPVFKVFPGSTTEDYNLIVIERGAAAAATGQPGTAPAGTPGAPPLAGMAIVKEEETEAAIGAPPTATEGPETKPVLMALAEGPGAEGPRLASPSGSTSSGLEVVAPEGTSAPGGGPGTLDDSATICRVCQKPGDLVMCNQCEFCFHLDCHLPALQDVPGEEWSCSLCHVLPDLKEEDGSLSLDGADSTGVVAKLSPANQRKCERVLLALFCHEPCRPLHQLATDSTFSLDQPGGTLDLTLIRARLQEKLSPPYSSPQEFAQDVGRMFKQFNKLTEDKADVQSIIGLQRFFETRMNEAFGDTKFSAVLVEPPPMSLPGAGLSSQELSGGPGDGP

More lines, now with the values behind:

B1: Cell Division Cycle Associated-3 (CDCA3), endogenous (protein, UniProt Q99618 1-268)
chain: B2 chain
binding [1]: binds

B3: Tripartite Motif Containing 28 (TRIM28), endogenous, Q13263 1-835 (protein)
chain: B4 chain
binding [2]: binds
